From patent publication US20240092922A1
No constants are given. Whether binding was seen depends on the method and setting. Some binding calls cover weakened binding; strength is not graded here.

Amino acid sequences for entries named in this document (tags omitted). A change or cut given only in a name is not applied to a line headed by its entry.
UniProt Q07011: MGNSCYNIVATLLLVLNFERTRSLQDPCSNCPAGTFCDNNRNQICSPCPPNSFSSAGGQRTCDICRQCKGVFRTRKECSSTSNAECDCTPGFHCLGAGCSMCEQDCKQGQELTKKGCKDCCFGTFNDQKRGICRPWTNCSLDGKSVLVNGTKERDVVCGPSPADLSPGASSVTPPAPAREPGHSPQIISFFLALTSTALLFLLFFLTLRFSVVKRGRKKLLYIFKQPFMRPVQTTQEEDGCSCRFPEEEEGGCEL

How the values were obtained:
[1] = molecular target: Histidine-tagged human 4-1BB protein (h4-1BB-His) (human) (UniProt Q07011); experiment: SPR (Biacore T200), antibody captured on a Protein A chip, h4-1BB-His injected at 800, 200, 50, 12.5 and 3.125 nM
[2] = molecular target: Histidine-tagged human 4-1BB protein (h4-1BB-His) (human) (UniProt Q07011); experiment: SPR (Biacore T200), antibody captured on a Protein A chip, human 4-1BB (h4-1BB-His, same method as Example 5) injected at 100, 25, 6.25, 1.5625 and 0.390625 nM

| Binder | binding [1] | binding [2] |
| --- | --- | --- |
| 16-1C4-mHvKv-IgG4 (antibody, V domains shown) VH: QGQMQQSGAELVKPGASVKLSCKTSGFTFSSSYINWLKQKPGQSLEWIAWIFAGTGGTYYNQKFTGKAQLTVDTSSGTAYMQFSSLTTEDSAIYYCARHSPRATLFDFWGQGTTLTVSS VL: QIVLSQSPAILSASPGEKVTMTCRASSSVNHMHWYQQRTGFSPKAWIYATSNLASGVPARFSGSGSGTSYSLTISRVEAEDAATYYCQQWSSNPYTFGGGTKLEIK | binds | – |
| 29-6A5-mHvKv-IgG2 (antibody, V domains shown) VH: QVQLQQPGAELVRPGASVKLSCKASGYTFSSYWINWVKQRPGQGLEWIGNIYPSDSYTNYNQKFKDKATLTVDKSSSTAYMQLSSPTSDDSAVYYCTRTWEFYYDSVFDYWGQGTTLTVSS VL: DIKMTQSPSSMYASLGERVTITCKASQDINSYLSWFQQKPGKSPKTLIYRANRLVDGVPSRFSGSGSGQDYSLTISSLEYEDMGIYYCLQYDELPPTFGGGTKLEIK | – | binds |
